In paper PMC8104946:
No constants are given. Whether binding was seen depends on the method and setting. In cells and extracts the contact can be indirect. A yes stands for co-enrichment or nearness to the bait. Other partners may have been found. Tags and fused reporters may be left off the sequences shown.

Amino acid sequences for entries named in this document (tags omitted). A change or cut given only in a name is not applied to a line headed by its entry.
UniProt Q9VCK0: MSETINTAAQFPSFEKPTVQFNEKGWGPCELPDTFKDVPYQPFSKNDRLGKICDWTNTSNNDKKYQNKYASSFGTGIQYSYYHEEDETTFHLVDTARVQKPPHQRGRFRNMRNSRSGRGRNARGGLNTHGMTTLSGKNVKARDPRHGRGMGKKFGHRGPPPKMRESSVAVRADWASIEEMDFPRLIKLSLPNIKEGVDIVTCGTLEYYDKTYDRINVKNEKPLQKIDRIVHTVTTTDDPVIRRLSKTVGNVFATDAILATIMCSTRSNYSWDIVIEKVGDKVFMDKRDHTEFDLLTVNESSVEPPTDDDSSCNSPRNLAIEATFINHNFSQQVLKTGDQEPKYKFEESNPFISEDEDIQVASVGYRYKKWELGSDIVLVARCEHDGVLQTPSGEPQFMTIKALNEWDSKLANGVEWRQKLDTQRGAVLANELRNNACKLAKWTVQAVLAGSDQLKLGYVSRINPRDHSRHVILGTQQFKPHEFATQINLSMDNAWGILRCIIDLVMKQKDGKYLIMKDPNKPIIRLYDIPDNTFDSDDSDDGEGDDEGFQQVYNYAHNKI
UniProt Q9VY91: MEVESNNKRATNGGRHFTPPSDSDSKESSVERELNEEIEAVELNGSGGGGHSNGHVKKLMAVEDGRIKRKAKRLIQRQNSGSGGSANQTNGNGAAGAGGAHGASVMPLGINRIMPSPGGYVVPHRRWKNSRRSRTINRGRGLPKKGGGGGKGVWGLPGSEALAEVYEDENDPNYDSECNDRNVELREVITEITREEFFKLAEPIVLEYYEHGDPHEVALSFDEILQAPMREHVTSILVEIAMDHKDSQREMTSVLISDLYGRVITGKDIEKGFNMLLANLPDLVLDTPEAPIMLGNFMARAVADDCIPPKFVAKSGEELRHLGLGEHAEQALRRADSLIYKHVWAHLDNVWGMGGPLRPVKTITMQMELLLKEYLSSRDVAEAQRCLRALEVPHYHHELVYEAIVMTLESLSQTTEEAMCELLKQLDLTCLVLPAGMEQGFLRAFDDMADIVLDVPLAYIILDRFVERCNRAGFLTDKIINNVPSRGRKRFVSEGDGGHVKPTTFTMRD
UniProt Q07152: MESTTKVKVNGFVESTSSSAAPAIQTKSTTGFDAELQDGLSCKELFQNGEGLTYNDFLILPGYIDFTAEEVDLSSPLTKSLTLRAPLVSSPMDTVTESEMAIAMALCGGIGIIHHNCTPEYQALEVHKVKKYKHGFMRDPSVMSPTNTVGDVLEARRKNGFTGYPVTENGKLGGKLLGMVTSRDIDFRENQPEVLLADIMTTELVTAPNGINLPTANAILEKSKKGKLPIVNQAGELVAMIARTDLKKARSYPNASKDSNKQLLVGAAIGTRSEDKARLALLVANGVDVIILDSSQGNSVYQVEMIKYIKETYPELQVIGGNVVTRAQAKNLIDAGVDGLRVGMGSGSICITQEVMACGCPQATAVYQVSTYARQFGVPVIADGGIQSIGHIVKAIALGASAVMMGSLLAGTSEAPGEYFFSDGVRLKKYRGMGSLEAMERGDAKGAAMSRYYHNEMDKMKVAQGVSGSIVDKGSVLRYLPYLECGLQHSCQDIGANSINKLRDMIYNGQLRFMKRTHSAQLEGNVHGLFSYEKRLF
UniProt Q9VX62: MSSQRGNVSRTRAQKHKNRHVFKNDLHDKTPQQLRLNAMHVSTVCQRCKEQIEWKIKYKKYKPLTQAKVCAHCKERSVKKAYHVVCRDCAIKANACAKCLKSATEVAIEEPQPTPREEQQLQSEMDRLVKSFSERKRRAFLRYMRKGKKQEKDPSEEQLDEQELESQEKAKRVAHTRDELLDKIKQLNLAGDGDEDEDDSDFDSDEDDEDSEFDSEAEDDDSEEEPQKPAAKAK

T1: CTPS-TurboID-V5 (wild-type Drosophila CTP synthase fused to TurboID and V5) (Drosophila) (UniProt Q9VUL1)
T1 sequence: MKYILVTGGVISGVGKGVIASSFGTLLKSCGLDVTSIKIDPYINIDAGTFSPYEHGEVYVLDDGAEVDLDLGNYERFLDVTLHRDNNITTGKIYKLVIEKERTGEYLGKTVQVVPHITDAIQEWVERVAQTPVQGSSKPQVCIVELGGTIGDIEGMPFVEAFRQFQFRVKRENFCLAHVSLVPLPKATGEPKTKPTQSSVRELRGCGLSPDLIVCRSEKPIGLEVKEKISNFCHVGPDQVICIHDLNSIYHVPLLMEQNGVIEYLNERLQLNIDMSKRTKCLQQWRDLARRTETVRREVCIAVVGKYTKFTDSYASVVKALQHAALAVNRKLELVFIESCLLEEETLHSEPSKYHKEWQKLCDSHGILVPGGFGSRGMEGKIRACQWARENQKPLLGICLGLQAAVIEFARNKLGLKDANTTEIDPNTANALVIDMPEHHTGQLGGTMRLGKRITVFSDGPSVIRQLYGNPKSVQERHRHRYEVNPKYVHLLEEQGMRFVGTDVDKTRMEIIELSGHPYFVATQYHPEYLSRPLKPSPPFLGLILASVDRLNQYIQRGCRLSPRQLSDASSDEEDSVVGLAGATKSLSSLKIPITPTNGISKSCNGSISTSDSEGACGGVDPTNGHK

B1: Awd (abnormal wing discs), nucleotide diphosphate kinase (enzyme, UniProt P08879 1-153)
chain: MAANKERTFIMVKPDGVQRGLVGKIIERFEQKGFKLVALKFTWASKELLEKHYADLSARPFFPGLVNYMNSGPVVPMVWEGLNVVKTGRQMLGATNPADSLPGTIRGDFCIQVGRNIIHGSDAVESAEKEIALWFNEKELVTWTPAAKDWIYE
B2: Catsup (endogenous) (protein, UniProt Q9V3A4 1-449)
chain: MAKQVADYQCSKLQLYQKLALVVILGAVLFSLPALCAGQGNPSFKYSREANENFDPQKAPRAEHHHHHDHDHDHGHHHHGHDHDHDHDHGHDHGHHHHGHDHDHDHDHGHHHHGHDERHTKAKPDLDMSTIWLHSIGSTLLISAAPFVLLYIIPLDNSEAMKPRLKVLLAFASGGLLGDAFLHLIPHATHPHSHGEHGHDHGHDHHHHHDGEEHEHGHSHDMSIGLWVLGGIIAFLSVEKLVRILKGGHGGHGHSHGAPKPKPVPAKKKSSDKEDSGDGDKPAKPAKIKSKKPEAEPEGEVEISGYLNLAADFAHNFTDGLAIGASYLAGNSIGIVTTITILLHEVPHEIGDFAILIKSGCSRRKAMLLQLVTALGALAGTALALLGAGGGDGSAPWVLPFTAGGFIYIATVSVLPELLEESTKLKQSLKEIFALLTGVALMIVIAKFE
B3: eIF3-S8, subunit of the eukaryotic translation initiation factor 3 (eIF3) (protein, UniProt A1ZAX1 1-910)
chain: MSRFFANGSESESESSEEEIQATNFNKASAFQFSDDEEEVKRVVRSTKEKRYENLTSIIKTIRNHKKIKDIPNTLSSFEDLTRAYQKALPVISKEENGITPRFYIRCLAELEDFINEVWEDREGRKNLSKNNSKSLGTLRQKVRKYIKDFEDDLSRFREAPDQESEAEDEVVALESDGGDAGDDSDAGVKPTEAVPKAVKSAPAKAAPADDDDSDDSIDWDSDSESETESSDDENQYQNMRERFLKRTTEKEEKDDDKRKDKRKEQKTKIRKRAEDDEDGEWETVVKGHVVEKPKMFEKDAEIDVPLVLAKLLEIMSARGKKRTDRRLQIDLLFELRDISDQHNLGTAVSVKIHFNIISAIYDYNQKISEPMKLEHWALLLEVMQSMMKLLLANADIIMSESVAEEHEEYATSPFYVRGCPLAAVERLDDEFVKLLKECDPHSNDYVSRLKDEVNVVKTIELVLQYFERSGTNNERCRIYLRKIEHLYYKFDPEVLKKKRGELPATTSTSVDVMDKLCKFIYAKDDTDRIRTRAILAHIYHHAMHDNWFQARDLVLMSHLQDNIDAADPATRILYNRMMANLGLCAFRQGNVKDAHHCLVDLMVTGKPKELLAQGLLPQRQHERSAEQEKIEKQRQMPFHMHINLELLECVYLVSAMLLEIPYIAAHEFDARRRMISKTFYQQLRSSERQSLVGPPESMREHVVAAAKAMRCGNWQACANFIVNKKMNTKVWDLFYESDRVREMLTKFIKEESLRTYLFTYSNVYTSISIPSLAQMYELPVPKVHSIISKMIINEELMASLDDPSETVGMHRSEPSRLQALAMQFVDKVTNLVDVNEKVFDMKQGNFFQRGNMGNRGDRGYNRNQNNQGGNWLGQRRDRNNRNRNQRGHHKNNQDRQQQQQQQVQTIDEE
B4: eIF3-S10, subunit of the eukaryotic translation initiation factor 3 (eIF3) (protein, UniProt Q9VN25 1-1140)
chain: MARYTQRPENALKRANEFIEVGKPLRALDTLQEVFRNKRWNYAYSETVIEPLMFKYLYLCVELKKSHIAKEGLFQYRNMFQLVNVNSLENVIRGYLKMAEEHTEAAQAQSSAAVAVLELDDLDNIATPESILMSAVCGEDAQDRSDRTILLPWVKFLWESYCQCLELLRVNTHCEALYHDIARMAFQFCLKYNRKSEFRRLCDKLRKHLEDICKSSNQTTGVSINKVETQQLCLDTRLYLLDSAIQMELWQEAYKAIEDIHGLMALSKKTPVPKTMANYYQKLAMVFSKAGNQLFHAAALLKLFQLTRELKKNLTKDDLQRMAAHVLLATLSIPLPSAHPEFDRFIEADKSPLEKAQKLAVLLGLPQPPTRVSLIREVVRLNVPQLVSEDFRNLYNWLEVDFNPLNLCKRIQSIVDFIENGPENALLTPYIQSLKDVTIMRLIRQISQVYESIKFQRLLQLASFCNIFELEKLLVESVRHNDMQIRIDHQKNSIYFGTDLTESQREYRPDGPALQSMPSEQIRSQLVNMSTVLTRAVSIVYPNRERDQRAKLRNQMVNHYHEIKDREHQRILQRQKIIEDRKEYIEKQNNAREEEEARRQEEESRKAKLAEQKRLEQEQEERERKRHQNEIQAIREKSLKEKVQQISQTAHGKKMLSKLDEEGIKKLDAEQIAKRESEELQREAKELQSKLKSQEKKIDYFERAKRLEEIPLFEKYLAEKQVKDKEFWEATEKTRIENAIAERKDAVAQQERLKRMYPDRDEFLEALKKERASLYVEKLKKFEAALEAERKKRLADRIIRRREERRQAFLREKEEERLRKEEEIRLAQAAEERAAAEARRLEREAEDEKRRAQYEKQRAKEEEAERKIKEDRDRLSRELASERERTEKDRDTWRPRGGDRPSASNGGSSEWRRAAPAASERNDRGGERIERGGERIERGGERLERGGERIERGGDRDRKDNEGADSSWRVRREPDSQRAAAPKDSGAPQSRDDKWRRGGERDRDFRIDGARRDRDDGPRRDRDDGPRRDRDDERGGFRRADGARRTDEPQRETGGNWRDAPRHADRETRRPAERRDRDVRETRGDQRGSAPKEAASGGVGGNWRTAPATREEKPAAKRDQAQEKENKAGDDGEWTSVKRR
B5: eIF-3p40, subunit of the eukaryotic translation initiation factor 3 (eIF3) (protein, UniProt Q9U9Q4 1-338)
chain: MANRANRHAARTEDSDNTINYVQCDGLAVMKMVKHCHEESSNMDLAQGALLGLVVDKCLEITNCFPFPKSGDETMDEEMYQLTVMRRLRRVNVDHLHVGWYQSSDVGNSLSMALLESQYHYQTSIEESVVVVYDTQKSSRGFLCLKAYRLTPQAIQMYKDGDFTPEAFRTLKVGYENLFAEIPIVIKNSPLTNIMMSELNELLPEDKGHNFLDLGTATVLENQMRSLIERVDELYQEAVRYNKYQQVVFKQDTEKHRALAKLAAENAVRTSKGEPTVPEEEVIKQFRPMTAPNRLTATITSGQINTHAQHIAQFCSQSLAKLFITESLQIAKEAKETK

Molecular target: T1, CTPS-TurboID-V5 (wild-type Drosophila CTP synthase fused to TurboID and V5) (Drosophila)
Assay: proximity labelling; TurboID fused to CTPS, expressed by da-GAL4; about 60 ovaries from 14-day-old flies on 100 uM biotin food; biotinylated proteins captured on streptavidin magnetic beads, on-bead trypsin digestion, MS (Orbitrap Fusion, LFQ); compared with CTPS H355A-TurboID (disrupted cytoophidium); three replicates

**Q.** How did the binding turn out when “Ytr (yantar) (Drosophila (endogenous in fly ovaries))” was run?
**A.** binds

**Q.** How did the binding turn out when “eIF-3p66, subunit of the eukaryotic translation initiation factor 3 (eIF3) (from UniProt Q9VCK0 1-560)” was run?
**A.** binds

**Q.** With “Pdcd4 (endogenous) (from UniProt Q9VY91)” as the molecule, how does the binding read?
**A.** binds

**Q.** “Ras (Inosine monophosphate dehydrogenase) (from UniProt Q07152 1-537) (enzyme)” was tested. Which binding did it give?
**A.** binds

**Q.** “CG6340 (Drosophila (endogenous in fly ovaries))” was tested. Which binding did it give?
**A.** binds

**Q.** Which binding does the source give for CG8675 (from UniProt Q9VX62) here?
**A.** binds

Molecular target: T1, CTPS-TurboID-V5 (wild-type Drosophila CTP synthase fused to TurboID and V5) (Drosophila)
Assay: as above
Remark: another data set of the same source

**Q.** Which binding does the source give for B1 here?
**A.** binds

**Q.** Which binding does the source give for B2 here?
**A.** binds

**Q.** With B3 as the molecule, how does the binding read?
**A.** binds

**Q.** Which binding does the source give for B4 here?
**A.** binds

**Q.** B5 was tested. Which binding did it give?
**A.** binds
